From the supplement of paper PMC6411743
± gives the standard deviation of the averaged measurements. This is a selection; strong and weak results do not stand in their true shares.

The chains behind the UniProt entries cited, without tags or fusion partners. Where a name states a change or a piece, a line headed by the entry shows the natural chain unless it says otherwise.
UniProt O75616: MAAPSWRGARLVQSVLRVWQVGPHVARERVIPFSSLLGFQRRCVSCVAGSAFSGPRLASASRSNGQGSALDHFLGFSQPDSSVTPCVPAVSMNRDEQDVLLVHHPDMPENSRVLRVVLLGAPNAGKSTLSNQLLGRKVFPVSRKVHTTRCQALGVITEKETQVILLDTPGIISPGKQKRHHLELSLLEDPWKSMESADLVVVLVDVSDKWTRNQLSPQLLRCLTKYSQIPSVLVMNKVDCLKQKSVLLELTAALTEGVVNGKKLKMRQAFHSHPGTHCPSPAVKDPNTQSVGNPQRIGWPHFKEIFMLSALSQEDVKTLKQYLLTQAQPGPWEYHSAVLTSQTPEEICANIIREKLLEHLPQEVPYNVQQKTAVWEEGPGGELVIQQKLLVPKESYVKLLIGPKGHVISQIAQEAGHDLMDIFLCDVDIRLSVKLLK
UniProt O95396: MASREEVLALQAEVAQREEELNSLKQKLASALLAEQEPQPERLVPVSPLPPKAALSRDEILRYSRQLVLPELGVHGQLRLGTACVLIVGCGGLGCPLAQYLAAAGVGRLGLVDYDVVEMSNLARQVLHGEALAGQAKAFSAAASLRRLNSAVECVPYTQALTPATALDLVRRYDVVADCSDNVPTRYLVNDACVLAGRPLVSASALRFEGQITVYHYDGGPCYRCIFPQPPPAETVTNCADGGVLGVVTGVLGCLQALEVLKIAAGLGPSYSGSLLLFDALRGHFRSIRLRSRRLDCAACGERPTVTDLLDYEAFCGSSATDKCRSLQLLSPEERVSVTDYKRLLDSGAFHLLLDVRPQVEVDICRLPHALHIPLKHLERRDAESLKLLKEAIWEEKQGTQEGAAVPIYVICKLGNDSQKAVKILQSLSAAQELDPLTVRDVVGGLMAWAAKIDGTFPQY
UniProt O94822: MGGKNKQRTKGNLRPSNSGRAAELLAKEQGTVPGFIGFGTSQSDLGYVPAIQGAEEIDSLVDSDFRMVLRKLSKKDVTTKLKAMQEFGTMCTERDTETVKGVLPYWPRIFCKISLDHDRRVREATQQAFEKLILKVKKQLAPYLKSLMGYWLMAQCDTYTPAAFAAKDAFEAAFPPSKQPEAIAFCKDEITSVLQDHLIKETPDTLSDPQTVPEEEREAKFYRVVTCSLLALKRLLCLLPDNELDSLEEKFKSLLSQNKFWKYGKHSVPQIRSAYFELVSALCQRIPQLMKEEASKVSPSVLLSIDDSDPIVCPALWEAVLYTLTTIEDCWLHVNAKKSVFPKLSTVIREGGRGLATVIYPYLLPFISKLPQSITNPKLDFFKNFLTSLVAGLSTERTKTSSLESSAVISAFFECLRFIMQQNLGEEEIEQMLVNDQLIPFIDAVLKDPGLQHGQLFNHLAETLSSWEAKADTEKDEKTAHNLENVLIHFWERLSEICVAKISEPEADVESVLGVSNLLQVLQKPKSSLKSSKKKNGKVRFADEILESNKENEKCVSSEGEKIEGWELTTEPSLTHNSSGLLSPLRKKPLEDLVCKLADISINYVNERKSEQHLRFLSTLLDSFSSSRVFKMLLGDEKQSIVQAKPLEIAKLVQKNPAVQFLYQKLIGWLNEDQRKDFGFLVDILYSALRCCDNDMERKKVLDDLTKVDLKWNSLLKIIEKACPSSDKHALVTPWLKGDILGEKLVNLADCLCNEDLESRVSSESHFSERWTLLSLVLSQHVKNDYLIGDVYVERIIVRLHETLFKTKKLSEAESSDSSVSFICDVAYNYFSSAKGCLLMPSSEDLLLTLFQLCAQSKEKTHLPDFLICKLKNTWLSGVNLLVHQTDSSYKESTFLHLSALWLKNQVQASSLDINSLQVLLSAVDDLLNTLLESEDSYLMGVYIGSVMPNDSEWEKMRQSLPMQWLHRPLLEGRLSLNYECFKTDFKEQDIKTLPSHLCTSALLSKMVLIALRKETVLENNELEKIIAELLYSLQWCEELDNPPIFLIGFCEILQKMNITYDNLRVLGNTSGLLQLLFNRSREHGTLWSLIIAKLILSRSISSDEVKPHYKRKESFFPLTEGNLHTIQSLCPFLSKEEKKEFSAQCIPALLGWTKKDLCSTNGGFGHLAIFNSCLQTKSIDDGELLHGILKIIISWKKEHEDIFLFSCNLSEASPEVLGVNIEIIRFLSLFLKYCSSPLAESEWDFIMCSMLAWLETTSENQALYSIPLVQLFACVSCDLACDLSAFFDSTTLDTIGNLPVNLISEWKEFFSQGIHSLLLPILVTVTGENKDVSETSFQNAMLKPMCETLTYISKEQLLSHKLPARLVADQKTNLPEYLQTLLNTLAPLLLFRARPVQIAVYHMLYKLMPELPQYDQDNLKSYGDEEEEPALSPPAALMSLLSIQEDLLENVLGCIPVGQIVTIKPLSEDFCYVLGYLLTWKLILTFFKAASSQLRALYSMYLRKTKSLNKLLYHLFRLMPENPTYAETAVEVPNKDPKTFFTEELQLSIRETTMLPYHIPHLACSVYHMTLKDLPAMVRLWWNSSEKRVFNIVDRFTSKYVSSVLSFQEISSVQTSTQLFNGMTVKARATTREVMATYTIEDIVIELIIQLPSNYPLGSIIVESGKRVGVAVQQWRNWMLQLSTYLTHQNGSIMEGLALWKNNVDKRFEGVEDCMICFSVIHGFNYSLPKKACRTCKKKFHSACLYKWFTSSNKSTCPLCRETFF
UniProt O95696: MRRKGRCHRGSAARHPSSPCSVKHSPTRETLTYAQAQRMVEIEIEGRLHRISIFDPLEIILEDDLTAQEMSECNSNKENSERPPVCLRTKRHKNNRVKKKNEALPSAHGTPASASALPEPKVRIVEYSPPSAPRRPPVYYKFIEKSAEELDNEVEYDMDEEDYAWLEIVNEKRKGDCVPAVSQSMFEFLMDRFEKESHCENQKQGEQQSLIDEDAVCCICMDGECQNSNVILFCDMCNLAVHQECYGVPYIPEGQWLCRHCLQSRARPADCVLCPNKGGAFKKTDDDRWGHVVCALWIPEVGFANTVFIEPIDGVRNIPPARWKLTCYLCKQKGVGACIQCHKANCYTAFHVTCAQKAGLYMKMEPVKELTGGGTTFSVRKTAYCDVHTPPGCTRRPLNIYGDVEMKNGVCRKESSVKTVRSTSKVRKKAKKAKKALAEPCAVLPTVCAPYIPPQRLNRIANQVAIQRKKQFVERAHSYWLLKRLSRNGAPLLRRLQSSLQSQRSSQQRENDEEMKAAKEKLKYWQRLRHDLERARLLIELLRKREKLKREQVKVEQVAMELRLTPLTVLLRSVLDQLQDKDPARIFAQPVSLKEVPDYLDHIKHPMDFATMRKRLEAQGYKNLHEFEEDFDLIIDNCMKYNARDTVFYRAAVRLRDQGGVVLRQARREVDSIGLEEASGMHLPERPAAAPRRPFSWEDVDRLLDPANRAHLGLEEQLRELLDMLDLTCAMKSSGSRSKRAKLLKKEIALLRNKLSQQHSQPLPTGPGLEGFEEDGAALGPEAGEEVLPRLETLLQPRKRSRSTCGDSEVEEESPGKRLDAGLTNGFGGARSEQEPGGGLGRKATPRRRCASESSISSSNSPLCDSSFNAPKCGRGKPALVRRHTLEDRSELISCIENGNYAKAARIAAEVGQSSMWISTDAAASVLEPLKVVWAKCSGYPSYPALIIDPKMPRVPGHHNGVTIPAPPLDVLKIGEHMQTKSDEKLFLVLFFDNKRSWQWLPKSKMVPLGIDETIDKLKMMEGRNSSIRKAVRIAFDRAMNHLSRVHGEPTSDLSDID
UniProt O75896: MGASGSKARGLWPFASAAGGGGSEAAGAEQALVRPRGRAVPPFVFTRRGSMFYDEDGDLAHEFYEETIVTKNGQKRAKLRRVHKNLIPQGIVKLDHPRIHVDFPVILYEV
UniProt O95149, whole entry: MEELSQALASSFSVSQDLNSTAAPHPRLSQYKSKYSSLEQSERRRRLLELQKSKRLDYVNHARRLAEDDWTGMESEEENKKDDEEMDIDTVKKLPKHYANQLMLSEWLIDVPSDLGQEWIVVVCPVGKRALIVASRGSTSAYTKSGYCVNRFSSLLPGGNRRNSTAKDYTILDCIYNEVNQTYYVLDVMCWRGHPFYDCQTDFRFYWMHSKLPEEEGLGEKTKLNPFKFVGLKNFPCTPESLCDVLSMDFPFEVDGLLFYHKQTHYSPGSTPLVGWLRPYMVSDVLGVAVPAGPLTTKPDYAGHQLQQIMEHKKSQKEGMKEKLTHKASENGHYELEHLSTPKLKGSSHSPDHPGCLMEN
UniProt O60508: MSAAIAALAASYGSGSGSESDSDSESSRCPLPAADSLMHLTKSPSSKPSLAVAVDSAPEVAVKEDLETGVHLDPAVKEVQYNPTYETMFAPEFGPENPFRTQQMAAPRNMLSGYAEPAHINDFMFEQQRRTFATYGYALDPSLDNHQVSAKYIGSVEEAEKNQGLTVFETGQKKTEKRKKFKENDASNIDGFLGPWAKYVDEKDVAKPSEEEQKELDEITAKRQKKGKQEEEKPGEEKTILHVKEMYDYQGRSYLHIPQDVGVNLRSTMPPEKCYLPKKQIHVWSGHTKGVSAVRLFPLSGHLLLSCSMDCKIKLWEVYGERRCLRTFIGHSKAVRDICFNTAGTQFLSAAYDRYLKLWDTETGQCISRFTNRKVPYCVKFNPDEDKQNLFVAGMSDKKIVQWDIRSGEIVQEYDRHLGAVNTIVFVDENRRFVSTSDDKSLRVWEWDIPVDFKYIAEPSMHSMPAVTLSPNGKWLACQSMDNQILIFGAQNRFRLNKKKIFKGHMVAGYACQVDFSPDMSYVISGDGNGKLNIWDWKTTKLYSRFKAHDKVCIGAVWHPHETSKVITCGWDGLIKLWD
UniProt O94887: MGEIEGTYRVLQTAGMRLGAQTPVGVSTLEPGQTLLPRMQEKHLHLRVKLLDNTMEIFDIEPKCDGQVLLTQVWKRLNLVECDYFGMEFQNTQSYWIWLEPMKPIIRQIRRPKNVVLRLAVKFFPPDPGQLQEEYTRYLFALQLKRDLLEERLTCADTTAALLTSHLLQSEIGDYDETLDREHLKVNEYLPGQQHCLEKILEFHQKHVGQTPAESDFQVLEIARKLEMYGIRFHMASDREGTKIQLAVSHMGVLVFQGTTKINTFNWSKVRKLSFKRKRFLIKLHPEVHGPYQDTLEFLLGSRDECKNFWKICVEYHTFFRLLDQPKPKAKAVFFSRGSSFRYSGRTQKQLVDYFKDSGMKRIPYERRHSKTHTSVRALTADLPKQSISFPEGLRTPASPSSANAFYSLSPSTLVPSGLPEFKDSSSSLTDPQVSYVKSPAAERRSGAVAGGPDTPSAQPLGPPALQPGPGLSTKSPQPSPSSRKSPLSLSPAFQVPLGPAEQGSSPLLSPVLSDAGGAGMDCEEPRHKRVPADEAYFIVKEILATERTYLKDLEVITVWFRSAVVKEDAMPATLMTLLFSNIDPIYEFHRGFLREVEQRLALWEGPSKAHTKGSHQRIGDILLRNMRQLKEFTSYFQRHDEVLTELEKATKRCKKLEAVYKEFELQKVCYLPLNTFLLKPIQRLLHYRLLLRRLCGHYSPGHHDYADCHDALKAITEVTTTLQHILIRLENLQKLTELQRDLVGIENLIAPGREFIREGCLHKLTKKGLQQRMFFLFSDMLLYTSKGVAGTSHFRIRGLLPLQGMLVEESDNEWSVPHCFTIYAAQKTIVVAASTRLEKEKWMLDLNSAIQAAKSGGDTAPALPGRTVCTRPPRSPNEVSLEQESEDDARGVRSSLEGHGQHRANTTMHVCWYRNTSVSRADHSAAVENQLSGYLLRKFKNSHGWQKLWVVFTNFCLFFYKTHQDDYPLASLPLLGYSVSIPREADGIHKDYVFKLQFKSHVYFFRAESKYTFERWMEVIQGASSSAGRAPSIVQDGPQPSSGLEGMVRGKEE
UniProt O95352: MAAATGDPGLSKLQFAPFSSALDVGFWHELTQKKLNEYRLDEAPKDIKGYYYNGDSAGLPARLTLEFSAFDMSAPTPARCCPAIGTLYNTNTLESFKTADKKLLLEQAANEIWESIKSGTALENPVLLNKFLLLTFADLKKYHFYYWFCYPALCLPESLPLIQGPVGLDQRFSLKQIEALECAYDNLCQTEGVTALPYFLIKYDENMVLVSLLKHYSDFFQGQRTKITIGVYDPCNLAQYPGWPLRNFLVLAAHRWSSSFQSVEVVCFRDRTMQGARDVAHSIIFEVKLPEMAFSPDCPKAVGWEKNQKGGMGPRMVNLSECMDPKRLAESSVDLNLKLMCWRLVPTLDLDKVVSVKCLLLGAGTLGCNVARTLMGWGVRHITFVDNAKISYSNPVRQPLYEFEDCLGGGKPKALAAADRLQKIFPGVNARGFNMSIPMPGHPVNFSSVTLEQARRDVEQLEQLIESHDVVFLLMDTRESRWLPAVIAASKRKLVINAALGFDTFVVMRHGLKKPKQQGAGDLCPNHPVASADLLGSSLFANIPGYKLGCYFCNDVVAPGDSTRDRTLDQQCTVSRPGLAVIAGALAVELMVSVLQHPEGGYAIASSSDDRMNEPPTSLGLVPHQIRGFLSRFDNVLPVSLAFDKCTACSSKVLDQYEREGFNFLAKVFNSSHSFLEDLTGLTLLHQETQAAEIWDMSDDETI

Compound: Nc1ncnc2c1ncn2[C@@H]1O[C@H](COP(=O)(O)OP(=O)(O)NP(=O)(O)O)[C@@H](O)[C@H]1O [adenylyl imidodiphosphate]
Assay: NP40-soluble protein abundance relative to vehicle (solubility fold change) (ratio); higher = more soluble protein in presence of AMP-PNP
Summary of the method: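 In three independent experiments, Jurkat crude lysate made by Dounce homogenisation was treated for 10 min at room temperature and then 3 min at 37 °C with eight concentrations ranging from 0.1 to 10 mM. It was then solubilised with 0.8% NP40 plus benzonase for 60 min at 4 °C and ultracentrifuged. The supernatant was TMT-labelled for LC-MS/MS, and each value is the fold change against the detergent-processed vehicle for the same replicate, using vsn-normalised intensities.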

Target	NP40-soluble protein abundance (concentration: 1mM)	NP40-soluble protein abundance (concentration: 2mM)	NP40-soluble protein abundance (concentration: 4mM)	NP40-soluble protein abundance (concentration: 6mM)	NP40-soluble protein abundance (concentration: 8mM)	NP40-soluble protein abundance (concentration: 10mM)
ERAL1 (UniProt O75616)	0.7647 ± 0.0038	0.6675 ± 0.0031	0.716 ± 0.036	0.681 ± 0.011	0.674 ± 0.062	0.636 ± 0.04
RP2 (UniProt O75695)	0.989 ± 0.044	0.9689 ± 0.0046	0.996 ± 0.044	0.952 ± 0.022	0.967 ± 0.032	0.94 ± 0.017
MOCS3 (UniProt O95396)	1.03 ± 0.055	1.03 ± 0.045	1.02 ± 0.021	0.982 ± 0.056	1.01 ± 0.047	1.02 ± 0.051
UniProt O60268 and related entries	0.998 ± 0.063	1.03 ± 0.04	1.01 ± 0.057	1.02 ± 0.093	0.994 ± 0.042	1.02 ± 0.066
UniProt O95298 and related entries	0.958 ± 0.11	0.949 ± 0.036	0.902 ± 0.068	0.82 ± 0.018	0.852 ± 0.017	0.756 ± 0.042
UniProt O60333-3|O60333 and related entries	0.948 ± 0.04	0.943 ± 0.044	0.961 ± 0.026	0.996 ± 0.06	0.984 ± 0.049	0.955 ± 0.05
UniProt O94822 and related entries	0.988 ± 0.027	0.945 ± 0.059	0.988 ± 0.025	0.937 ± 0.032	0.962 ± 0.022	0.9245 ± 0.006
RNGTT (UniProt O60942)	0.978 ± 0.038	0.95 ± 0.056	0.988 ± 0.027	0.9526 ± 0.0079	0.9841 ± 0.0079	0.9551 ± 0.0037
CPSF4 (UniProt O95639)	1.01 ± 0.034	0.996 ± 0.03	1.02 ± 0.074	1.03 ± 0.049	1.08 ± 0.072	1.11 ± 0.13
UniProt O95696 and related entries	1.003 ± 0.006	1.04 ± 0.046	0.99 ± 0.024	1.03 ± 0.016	1.026 ± 0.0089	1.04 ± 0.013
UniProt O75909 and related entries	1.01 ± 0.024	1.08 ± 0.042	1.06 ± 0.04	1.04 ± 0.024	1.04 ± 0.047	1.06 ± 0.018
TACC1 (UniProt O75410)	1.04 ± 0.013	1.07 ± 0.066	1.03 ± 0.034	0.985 ± 0.02	0.9658 ± 0.0052	0.97 ± 0.022
NBN (UniProt O60934)	0.9851 ± 0.0049	1 ± 0.019	1 ± 0.037	1.01 ± 0.04	1 ± 0.029	1.04 ± 0.055
TUSC2 (UniProt O75896)	1.01 ± 0.035	1 ± 0.037	0.9769 ± 0.0092	1 ± 0.047	1.02 ± 0.049	1.04 ± 0.027
WFS1 (UniProt O76024)	1.03 ± 0.017	1.037 ± 0.0083	1 ± 0.011	0.991 ± 0.03	0.982 ± 0.037	1 ± 0.011
UniProt O43933 and related entries	1.15 ± 0.1	1.1 ± 0.12	1.12 ± 0.067	1.1 ± 0.085	1.1 ± 0.055	1.1 ± 0.082
DUSP11 (UniProt O75319)	1.02 ± 0.015	1.03 ± 0.018	1.05 ± 0.037	1.03 ± 0.035	1.06 ± 0.046	1.06 ± 0.078

Target	NP40-soluble protein abundance (concentration: 1mM)	NP40-soluble protein abundance (concentration: 2mM)	NP40-soluble protein abundance (concentration: 4mM)	NP40-soluble protein abundance (concentration: 6mM)	NP40-soluble protein abundance (concentration: 8mM)	NP40-soluble protein abundance (concentration: 10mM)
UniProt O94804	1.03 ± 0.017	1.04 ± 0.031	1.01 ± 0.027	0.987 ± 0.029	0.96 ± 0.012	0.991 ± 0.048
NADK (UniProt O95544)	1.01 ± 0.039	0.993 ± 0.014	1.03 ± 0.024	1.08 ± 0.026	1.06 ± 0.035	1.1 ± 0.025
UniProt O95297 and related entries	0.937 ± 0.034	0.992 ± 0.086	0.954 ± 0.033	1 ± 0.049	0.957 ± 0.026	0.998 ± 0.068
ZFAND5 (UniProt O76080)	0.925 ± 0.011	0.988 ± 0.099	0.935 ± 0.026	0.916 ± 0.03	0.904 ± 0.018	0.944 ± 0.02
E2F6 (UniProt O75461)	0.986 ± 0.02	0.913 ± 0.063	0.977 ± 0.012	0.921 ± 0.03	0.949 ± 0.036	0.919 ± 0.039
UniProt O43929 and related entries	0.941 ± 0.06	0.921 ± 0.05	0.961 ± 0.044	0.954 ± 0.039	0.981 ± 0.016	0.947 ± 0.051
GGCT (UniProt O75223)	0.9982 ± 0.0093	1.04 ± 0.077	0.993 ± 0.021	1.08 ± 0.059	1.04 ± 0.073	1.08 ± 0.06
UniProt O94826	1 ± 0.013	1.03 ± 0.031	0.986 ± 0.04	1.01 ± 0.013	0.986 ± 0.032	0.981 ± 0.047
SNUPN (UniProt O95149)	0.983 ± 0.038	0.946 ± 0.034	1 ± 0.059	1.01 ± 0.04	1.05 ± 0.045	1.04 ± 0.031
ATG12 (UniProt O94817)	0.962 ± 0.053	1.01 ± 0.061	0.976 ± 0.022	0.99 ± 0.041	0.975 ± 0.028	1.02 ± 0.025
GRAP2 (UniProt O75791)	0.989 ± 0.027	0.899 ± 0.073	0.984 ± 0.027	0.942 ± 0.03	0.997 ± 0.013	0.944 ± 0.028
UniProt O94985-2	1.01 ± 0.028	1.009 ± 0.006	1.02 ± 0.015	0.9869 ± 0.007	0.995 ± 0.013	0.987 ± 0.037
UniProt O95613 and related entries	0.956 ± 0.042	1 ± 0.048	1.13 ± 0.044	1.02 ± 0.05	1.05 ± 0.041	0.981 ± 0.052
UniProt O60508 and related entries	1.03 ± 0.018	1.07 ± 0.029	1.06 ± 0.026	1.09 ± 0.059	1.08 ± 0.044	1.13 ± 0.056
UniProt O94887 and related entries	0.993 ± 0.044	1.02 ± 0.0093	0.979 ± 0.053	0.951 ± 0.031	0.959 ± 0.0022	0.961 ± 0.039
ATG7 (UniProt O95352)	0.997 ± 0.014	0.935 ± 0.1	0.974 ± 0.012	0.955 ± 0.042	0.954 ± 0.03	0.928 ± 0.012
MTRF1 (UniProt O75570)	0.986 ± 0.023	0.948 ± 0.047	0.996 ± 0.01	0.99 ± 0.018	0.984 ± 0.033	0.968 ± 0.04

Given as comma-separated lines: entries from further up.
Target,NP40-soluble protein abundance (concentration: 1mM),NP40-soluble protein abundance (concentration: 2mM),NP40-soluble protein abundance (concentration: 4mM),NP40-soluble protein abundance (concentration: 6mM),NP40-soluble protein abundance (concentration: 8mM),NP40-soluble protein abundance (concentration: 10mM)
SNUPN (UniProt O95149),0.983 ± 0.038,0.946 ± 0.034,1 ± 0.059,1.01 ± 0.04,1.05 ± 0.045,1.04 ± 0.031
ATG12 (UniProt O94817),0.962 ± 0.053,1.01 ± 0.061,0.976 ± 0.022,0.99 ± 0.041,0.975 ± 0.028,1.02 ± 0.025
GRAP2 (UniProt O75791),0.989 ± 0.027,0.899 ± 0.073,0.984 ± 0.027,0.942 ± 0.03,0.997 ± 0.013,0.944 ± 0.028
UniProt O94985-2,1.01 ± 0.028,1.009 ± 0.006,1.02 ± 0.015,0.9869 ± 0.007,0.995 ± 0.013,0.987 ± 0.037
UniProt O95613 and related entries,0.956 ± 0.042,1 ± 0.048,1.13 ± 0.044,1.02 ± 0.05,1.05 ± 0.041,0.981 ± 0.052
UniProt O60508 and related entries,1.03 ± 0.018,1.07 ± 0.029,1.06 ± 0.026,1.09 ± 0.059,1.08 ± 0.044,1.13 ± 0.056
UniProt O94887 and related entries,0.993 ± 0.044,1.02 ± 0.0093,0.979 ± 0.053,0.951 ± 0.031,0.959 ± 0.0022,0.961 ± 0.039
ATG7 (UniProt O95352),0.997 ± 0.014,0.935 ± 0.1,0.974 ± 0.012,0.955 ± 0.042,0.954 ± 0.03,0.928 ± 0.012
MTRF1 (UniProt O75570),0.986 ± 0.023,0.948 ± 0.047,0.996 ± 0.01,0.99 ± 0.018,0.984 ± 0.033,0.968 ± 0.04
